Reference: the supplement of paper PMC4604168 (melanoma cell lines)
The list shows a part of the results. Many values rest on one well or one pass, so single values are uncertain.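 Imaging used 1,536-well plates; nuclei positive for cleaved PARP by antibody were divided by total DNA-stained nuclei to yield the apoptosis fraction. Doses for screening kept most cells viable, and cell lines differ markedly in resting and induced cleaved-PARP levels.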

Legend:
Assay in all cases: cleaved PARP positive nuclei fraction relative to DMSO control; melanoma cells; higher = more apoptosis
Conditions in all cases: library dose: low library concentration; 72 h
501Mel = tested on: 501Mel
A101D = tested on: A101D
A2058 = tested on: A2058
A375 = tested on: A375
C32 = tested on: C32
CBRC008 = tested on: CBRC008 (line from a melanoma biopsy)
CBRC014 = tested on: CBRC014 (line from a melanoma biopsy)
CBRC016 = tested on: CBRC016 (line from a melanoma biopsy)
CBRC017 = tested on: CBRC017 (line from a melanoma biopsy)

Row | SMILES | cleaved PARP positive nuclei fraction (501Mel) [%] | cleaved PARP positive nuclei fraction (A101D) [%] | cleaved PARP positive nuclei fraction (A2058) [%] | cleaved PARP positive nuclei fraction (A375) [%] | cleaved PARP positive nuclei fraction (C32) [%] | cleaved PARP positive nuclei fraction (CBRC008) [%] | cleaved PARP positive nuclei fraction (CBRC014) [%] | cleaved PARP positive nuclei fraction (CBRC016) [%] | cleaved PARP positive nuclei fraction (CBRC017) [%]
1 | Cc1ccc(Nc2nccc(N(C)c3ccc4c(C)n(C)nc4c3)n2)cc1S(N)(=O)=O [Pazopanib] + NC(=O)c1ccc(N(C(N)=O)c2c(F)cccc2F)nc1-c1ccc(F)cc1F [VX702] (first compound 0.4 µM, partner dose 0.4 µM) | 128 | 105 | 25.3 | 94.3 | 66.2 | 66.2 | 115 | 69.1 | 119
2 | COc1cc([C@@H]2c3cc4c(cc3[C@@H](O[C@@H]3O[C@@H]5CO[C@@H](C)O[C@H]5[C@H](O)[C@H]3O)[C@H]3COC(=O)[C@H]23)OCO4)cc(OC)c1O [etoposide] + Clc1ccc(Nc2nnc(Cc3ccncc3)c3ccccc23)cc1 [vatalanib] (first compound 0.02 µM, partner dose 2 µM) | 99.9 | 86.7 | 198 | 177 | 80.2 | 94.6 | 86.2 | 86 | 243
3 | CC[C@]1(O)C[C@H]2CN(CCc3c([nH]c4ccccc34)[C@@](C(=O)OC)(c3cc4c(cc3OC)N(C=O)[C@H]3[C@@](O)(C(=O)OC)[C@H](OC(C)=O)[C@]5(CC)C=CCN6CC[C@]43[C@@H]65)C2)C1 [vincristine] + Cc1nc(Nc2ncc(C(=O)Nc3c(C)cccc3Cl)s2)cc(N2CCN(CCO)CC2)n1 [dasatanib] (first compound 0.0001 µM, partner dose 0.004 µM) | 116 | 287 | 1510 | 247 | 199 | 369 | 134 | 45.5 | 149
4 | CCCCCCCCCCCCCCCCCCOP(=O)([O-])OC1CC[N+](C)(C)CC1 [Perifosine] + Cn1cnc2c(F)c(Nc3ccc(Br)cc3Cl)c(C(=O)NOCCO)cc21 [selumetinib] (first compound 0.4 µM, partner dose 0.015 µM) | 146 | 159 | 75.6 | 99.7 | 299 | 102 | 80.1 | 177 | 132
5 | Cc1cc(Nc2cc(N3CCN(C)CC3)nc(Sc3ccc(NC(=O)C4CC4)cc3)n2)n[nH]1 [Tozasertib] + CN(c1ncccc1CNc1nc(Nc2ccc3c(c2)CC(=O)N3)ncc1C(F)(F)F)S(C)(=O)=O [PF562271] (first compound 0.006 µM, partner dose 0.08 µM) | 79.9 | 97.7 | 72.8 | 215 | 79.6 | 33 | 100 | 179 | 215
6 | O=c1[nH]nc(Sc2ncc([N+](=O)[O-])s2)n1-c1ccc2c(c1)OCCO2 + NC(=O)c1ccc(N(C(N)=O)c2c(F)cccc2F)nc1-c1ccc(F)cc1F [VX702] (first compound 0.2 µM, partner dose 0.4 µM) | 66.5 | 86.9 | 55.4 | 163 | 72.8 | 112 | 124 | 711 | 101
7 | O=C(/C=C/c1cccnc1)NCCCCC1CCN(C(=O)c2ccccc2)CC1 + O=C(O)c1ccc2c(c1)nc(Nc1cccc(Cl)c1)c1ccncc12 [CX4945] (first compound 0.01 µM, partner dose 0.4 µM) | 146 | 139 | 30.7 | 40.2 | 75.7 | 1490 | 122 | 1390 | 509
8 | O=c1[nH]nc(Sc2ncc([N+](=O)[O-])s2)n1-c1ccc2c(c1)OCCO2 + O=C(O)c1ccc2c(c1)nc(Nc1cccc(Cl)c1)c1ccncc12 [CX4945] (first compound 0.2 µM, partner dose 0.4 µM) | 41.2 | 77.6 | 72.8 | 102 | 69.1 | 70.5 | 121 | 139 | 137
9 | O=c1[nH]nc(Sc2ncc([N+](=O)[O-])s2)n1-c1ccc2c(c1)OCCO2 + Cn1nnc2c(C(N)=O)ncn2c1=O [temozolomide] (first compound 0.2 µM, partner dose 2 µM) | 2920 | 104 | 98.7 | 240 | 113 | 128 | 158 | 275 | 155
10 | CC[C@]1(O)C[C@H]2CN(CCc3c([nH]c4ccccc34)[C@@](C(=O)OC)(c3cc4c(cc3OC)N(C=O)[C@H]3[C@@](O)(C(=O)OC)[C@H](OC(C)=O)[C@]5(CC)C=CCN6CC[C@]43[C@@H]65)C2)C1 [vincristine] + CCN(CC)CCNC(=O)c1c(C)[nH]c(/C=C2\C(=O)Nc3ccc(F)cc32)c1C [sunitinib] (first compound 0.0001 µM, partner dose 0.4 µM) | 92.2 | 84 | 238 | 78.7 | 85.2 | 32.5 | 98.2 | 50.5 | 121

No new results follow: an excerpt of the list.
Row | SMILES | cleaved PARP positive nuclei fraction (501Mel) [%] | cleaved PARP positive nuclei fraction (A101D) [%] | cleaved PARP positive nuclei fraction (A2058) [%] | cleaved PARP positive nuclei fraction (A375) [%] | cleaved PARP positive nuclei fraction (C32) [%] | cleaved PARP positive nuclei fraction (CBRC008) [%] | cleaved PARP positive nuclei fraction (CBRC014) [%] | cleaved PARP positive nuclei fraction (CBRC016) [%] | cleaved PARP positive nuclei fraction (CBRC017) [%]
5 | Cc1cc(Nc2cc(N3CCN(C)CC3)nc(Sc3ccc(NC(=O)C4CC4)cc3)n2)n[nH]1 [Tozasertib] + CN(c1ncccc1CNc1nc(Nc2ccc3c(c2)CC(=O)N3)ncc1C(F)(F)F)S(C)(=O)=O [PF562271] (first compound 0.006 µM, partner dose 0.08 µM) | 79.9 | 97.7 | 72.8 | 215 | 79.6 | 33 | 100 | 179 | 215
6 | O=c1[nH]nc(Sc2ncc([N+](=O)[O-])s2)n1-c1ccc2c(c1)OCCO2 + NC(=O)c1ccc(N(C(N)=O)c2c(F)cccc2F)nc1-c1ccc(F)cc1F [VX702] (first compound 0.2 µM, partner dose 0.4 µM) | 66.5 | 86.9 | 55.4 | 163 | 72.8 | 112 | 124 | 711 | 101
